# Percent effect of library compounds

Chains of the proteins cited; added tags and fusions are not shown.
UniProt P9WPC5, whole entry: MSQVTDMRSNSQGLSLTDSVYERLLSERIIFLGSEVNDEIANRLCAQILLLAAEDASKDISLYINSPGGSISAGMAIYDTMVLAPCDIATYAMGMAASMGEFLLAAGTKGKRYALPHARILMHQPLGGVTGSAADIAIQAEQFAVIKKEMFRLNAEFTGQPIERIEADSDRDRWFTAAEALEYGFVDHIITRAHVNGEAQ
UniProt P9WPC3, whole entry partner: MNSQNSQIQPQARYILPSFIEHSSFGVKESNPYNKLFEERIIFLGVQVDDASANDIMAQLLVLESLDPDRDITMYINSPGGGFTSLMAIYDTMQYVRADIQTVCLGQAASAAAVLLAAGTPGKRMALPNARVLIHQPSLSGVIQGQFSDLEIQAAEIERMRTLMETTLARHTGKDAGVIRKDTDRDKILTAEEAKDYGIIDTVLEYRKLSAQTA

The values are deposited in ChEMBL (CHEMBL3988442, “University of Dundee, Small-Polar-MMV Screening Library” (2021)).

A: 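Assay of Toxoplasma gondii numbers, read through their beta-galactosidase reporter with a colour substrate. Concentration: 10 µM. The record gives no direction; the compounds picked for IC50 retests had high values, so higher reads as fewer parasites. About 67,000 compounds were tested under these conditions; 0.38% (about 260) showed 50% or more at least once.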
B: 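ClpP1P2, Mycobacterium tuberculosis (UniProt P9WPC5 and UniProt P9WPC3). Protease assay of ClpP1P2, read by the AMC dye that it sets free. Concentration: 50 µM. Direction is inferred from only a few compounds that gave an IC50; most scored high, so higher reads as stronger inhibition. Most other retested compounds had strongly negative values. About 69,000 compounds were tested under these conditions; 0.015% (about 10) showed 50% or more at least once.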

Each number is a percent effect as filed. How 0% and 100% were set is not recorded. Most values in the screen are low, and negative values occur. The compounds are a random part of those screened. A dash means the value is not listed here; it may have been measured.

| # | compound | A | B |
|---|---|---|---|
| 1 | `O=C(NCCNC(=O)C1CC1)c1cnc(-c2ccccc2)nc1` | 0.05797 | 4.807 |
| 2 | `CC(CNC(=O)Nc1cn[nH]c1)N1CCOCC1` (stereo not drawn) | -9.628 | 2.013 |
| 3 | `O=C(Cc1ccsc1)N1CCCC(c2cc(C(F)F)n3ncnc3n2)C1` (stereo not drawn) | 15.83 | 1.55 |
| 4 | `COCC(=O)N1CCCn2c(CN3CCCC3)nnc2C1` | 9.182 | -6.796 |
| 5 | `CC(=O)N1CCc2c(nc(N(C)C)nc2N(C)CCC2CCCCO2)C1` (stereo not drawn) | -30.84 | -0.9192 |
| 6 | `NC(=O)C1CCN(c2ncccc2C(=O)N2CCc3ccccc32)C1` (stereo not drawn) | -14.66 | -6.923 |
| 7 | `Cc1ccc(N2CCC3(CCN(Cc4csc(C)n4)CC3)CC2)nn1` | 11.11 | -10.56 |
| 8 | `CC(C)=Cc1c(-c2ccccc2)ncn1CCS(C)(=O)=O` | 9.826 | -8.666 |
| 9 | `CC(C)c1ncncc1C(=O)NCCN1CCOCC1` | 19.4 | 2.925 |
| 10 | `CC(C)n1cc(C(=O)NCCCc2csc(N)n2)cn1` | -12.78 | -2.425 |
| 11 | `CC(NC(=O)NCCCn1ccnc1)c1nncn1C` (stereo not drawn) | 8.6 | -4.786 |
| 12 | `COc1ccccc1C1CNC(=O)c2nc(-c3ncc[nH]3)[nH]c2C1` (stereo not drawn) | -2.654 | -12.75 |
| 13 | `CCOC(=O)N1CCC(C(=O)Nc2nnc(C(F)(F)F)[nH]2)CC1` | 5.232 | 6.102 |
| 14 | `CCc1cnc(C)nc1N1CCS(=O)(=O)CC1` | 2.382 | 3.088 |
| 15 | `O=C(O)C(F)(F)F.[H][C@@]12C[C@H](C(=O)N3CCCCO3)CN(Cc3ccccn3)[C@]1([H])CCO2` | -22.48 | - |
| 16 | `Cc1cc(C(=O)N2CCCN(c3nccs3)CC2)c(C)n1C(C)C` | -16.81 | 0.5557 |
| 17 | `CCc1ccsc1C(=O)N1CCN(CC(N)=O)CC1` | 3.372 | -2.263 |
| 18 | `Cc1noc2nc(C3CCN(CC4=CCCOC4)CC3)cc(C(F)F)c12.Cl` | -4.805 | - |
| 19 | `COc1cccc(OCc2cc(C(=O)NC[C@@H]3CCCN3)n[nH]2)c1` | 6.078 | 3.64 |
| 20 | `Cc1ccc(CN2CCCC3(CCN(Cc4ccc(C)o4)C3)C2)o1` (stereo not drawn) | 1.568 | -0.4956 |
| 21 | `Nc1nccnc1C(=O)N(Cc1ccco1)CC1CCCO1` (stereo not drawn) | -4.359 | -6.402 |
| 22 | `O=C(c1ccccn1)N1C[C@@H]2CC[C@H](C1)N(C(=O)CCC(F)(F)F)C2` | - | 5.693 |
| 23 | `CCCS(=O)(=O)N1CCC(NC(=O)c2ccc(Cl)s2)CC1` | -1.652 | -3.829 |
| 24 | `O=C(c1ccc2c(c1)CCC2)N1C[C@@H](CN2CCOCC2)[C@@H](CO)C1` | -1.762 | -23.82 |
| 25 | `CC(c1ccco1)N(C)C(=O)NCCOc1ccc(C#N)cc1` (stereo not drawn) | 14.51 | -12.38 |
| 26 | `COc1ccc(N2CCN(C(=O)Cn3nc(C)c(Cl)c3C)CC2)cc1` | 14 | -6.249 |
| 27 | `CCCc1nc(CNC(C)Cn2cccn2)cs1` (stereo not drawn) | 25.5 | -18.74 |
| 28 | `Cc1cnc2c(S(=O)(=O)NCC3CC3)cccc2c1` | -21.71 | -24.59 |
| 29 | `CCOC(=O)CC1CCCCN1C(=O)c1cc(=O)[nH]c(=O)[nH]1` (stereo not drawn) | 5.385 | 6.596 |
| 30 | `CCN1CC2(CCN(CC3COCCO3)CC2)OC1=O` (stereo not drawn) | -2.64 | 5.404 |
| 31 | `Cc1cc(C(F)(F)F)nc(CCNc2nc(C)nc3sccc23)n1` | 9.472 | -16.64 |
| 32 | `[H][C@@]12OCCN(C(=O)C3=CCCC3)[C@@]1([H])CC[C@@H]2OCC1CC1` | 2.35 | - |
| 33 | `CCCOc1c(Cl)cc(C(=O)N2CCOC23CCN(C)CC3)cc1Cl` | 3.504 | -7.887 |
| 34 | `CCc1ccccc1CNC(=O)CNCC(F)(F)F` | -2.624 | 0.1842 |
| 35 | `COCCn1c2c(ccc1=O)CC(NC(=O)c1cscn1)CC2` (stereo not drawn) | -20.57 | 2.961 |
| 36 | `CN(CCc1ccccc1)Cc1nc2c(cnn2C)c(=O)[nH]1` | 0.7652 | -2.114 |
| 37 | `Cn1nc(C#N)c2c1CN(C(=O)c1nc[nH]n1)CCC2` | 19.12 | 2.876 |
| 38 | `CCOCC1CN(c2ccncn2)Cc2cnn(CC3CC3)c21.O=C(O)C(F)(F)F.O=C(O)C(F)(F)F` (stereo not drawn) | 6.599 | - |
| 39 | `Cc1nnc(N2CCCC3(CN(Cc4ccc(C)s4)CCO3)C2)o1.O=C(O)C(F)(F)F.O=C(O)C(F)(F)F` (stereo not drawn) | -1.275 | - |
| 40 | `CC(C)(C)c1nc(CN2CCC(c3nc4cc(Cl)ccc4o3)CC2)no1` | -2.308 | -8.166 |
| 41 | `Cn1ccnc1SCCNC(=O)c1c[nH]nc1C1CCCCC1` | -2.271 | -9.313 |
| 42 | `CCCNC(=O)CCC(=O)Nc1cc2sc(C)nc2cc1OC` | 15.82 | -8.245 |
| 43 | `COc1cccc(CN2CCC3(CCN(C(=O)[C@H]4CCCO4)CC3)C2)c1.O=C(O)C(F)(F)F` | 1.056 | - |
| 44 | `Cc1nc2n(n1)CC(Nc1nc(C(F)(F)F)nc3ccccc13)CC2` (stereo not drawn) | -19.5 | 1.962 |
| 45 | `[H][C@]12CC[C@]([H])(CN(Cc3ccccc3OC(F)F)C1)N(CC1CC1)C2=O` | -3.578 | - |
| 46 | `CC(=O)N1CC(C(=O)N2CCCC(Cn3ccnc3C)C2)C1` (stereo not drawn) | -7.606 | 5.208 |
| 47 | `Cc1nn(C)cc1-c1cc(C(F)(F)F)nc(NC2CCCCC2)n1` | 1.393 | -5.212 |
| 48 | `Cc1ccc(NC(=O)CN2CCCNC2=O)c(SC(F)(F)F)c1` | -18.7 | -6.148 |
| 49 | `CC(C)=CCC1(CO)CCCN(S(=O)(=O)N2CCCC2)C1` (stereo not drawn) | -4.289 | -3.514 |
| 50 | `O=C(Cn1cc(C2CC2)nn1)NC(c1ccc(Cl)cc1)C1CC1` (stereo not drawn) | -4.694 | -16.73 |
| 51 | `Cc1nc(Nc2ncccn2)cc(C2CCCN2C)n1` (stereo not drawn) | 8.25 | -7.564 |
| 52 | `Cc1cc(N2CCCC(c3[nH]ncc3Cc3ccccc3)C2)nc(N)n1` (stereo not drawn) | 9.821 | 1.478 |
| 53 | `CCc1nc(C)sc1CNC1CCN(Cc2ccccc2)C1` (stereo not drawn) | - | 0.4999 |
| 54 | `COc1ccc2c(c1)OC1(CCN(Cc3ccccc3C)CC1)CC2=O` | 29.07 | -25.56 |
| 55 | `Cc1cccc(CN2CCCC23CCNC3)n1` (stereo not drawn) | -1.072 | -4.714 |
| 56 | `CC(C)c1ncc(CNC2(c3ccc(Cl)cc3)CC2)cn1` | 4.927 | 11.13 |
| 57 | `Cn1ccc(C(=O)NC2CCC23CCN(CC2CCOCC2)CC3)c1` (stereo not drawn) | - | -10.77 |
| 58 | `CC(C)CN1CCc2c(CN(C)Cc3ccco3)cncc2C1` | - | -22.59 |
| 59 | `O=S(=O)(c1ccc(F)cc1)N1CCOC[C@H](Oc2cnccn2)C1` | 12.12 | -10.79 |
| 60 | `Cc1ccnn1CCC(=O)N1CCCC1c1cc2cccnc2[nH]1` (stereo not drawn) | - | -8.54 |
| 61 | `COCc1cc(CNCc2c(C)n(CC(C)C)c3ccccc23)n[nH]1` | 1.782 | -1.43 |
| 62 | `CC(C)(NC(=O)c1ccc(-c2ccc(F)cc2)s1)C(N)=O` | 16.31 | 12.99 |
| 63 | `[H][C@@]12CCN(C(=O)Cc3ccc(O)cc3)C[C@]1([H])[C@@H](c1ccccc1)CN2C` | 7.707 | - |
| 64 | `CC(=O)NCc1nn(C)c2c1CN(Cc1ccsc1)C2.O=C(O)C(F)(F)F` | -2.711 | - |
| 65 | `Cc1cnc(NC(=O)c2csc(NCC(C)C)n2)s1` | -1.024 | -3.089 |
| 66 | `[H][C@]12CC[C@]([H])(CN(C(=O)c3cnc(O)cn3)C1)N(Cc1ccccc1)C2` | -16.91 | - |
| 67 | `Cc1ncc2c(n1)CN(CC(=O)Nc1ccc(Cl)cn1)CC2` | 20.45 | -65.26 |
| 68 | `CCc1ccc(CN(C)Cc2nc(-c3cnccn3)no2)nc1` | -0.634 | -7.165 |
| 69 | `[H][C@@]12C[C@H](C(=O)NCc3cccnc3)[C@@]([H])(CN(CC)C1)O2` | -0.269 | - |
| 70 | `CCSc1cc(C(=O)N(Cc2cnn(C)c2)C(C)C)ccn1` | -2.615 | -7.599 |
| 71 | `Cc1nc(CN2CCC3(CC2)NC(=O)CC3c2ccccc2)cs1.O=C(O)C(F)(F)F` (stereo not drawn) | 4.963 | - |
| 72 | `Cc1cc(C)n(CC2CCCCN2CC(=O)Nc2ccncc2)n1` (stereo not drawn) | -6.561 | 9.696 |

Some entries from above, unchanged:

With [H][C@@]12OCCN(C(=O)C3=CCCC3)[C@@]1([H])CC[C@@H]2OCC1CC1 the screen gave A: 2.35%.
With Cc1cnc(NC(=O)c2csc(NCC(C)C)n2)s1 the screen gave A: -1.024%; B: -3.089%.
With O=C(NCCNC(=O)C1CC1)c1cnc(-c2ccccc2)nc1 the screen gave A: 0.05797%; B: 4.807%.
With CC(C)c1ncc(CNC2(c3ccc(Cl)cc3)CC2)cn1 the screen gave A: 4.927%; B: 11.13%.
With Cc1nc(CN2CCC3(CC2)NC(=O)CC3c2ccccc2)cs1.O=C(O)C(F)(F)F (stereo not drawn) the screen gave A: 4.963%.
With COCc1cc(CNCc2c(C)n(CC(C)C)c3ccccc23)n[nH]1 the screen gave A: 1.782%; B: -1.43%.
With CCc1ccccc1CNC(=O)CNCC(F)(F)F the screen gave A: -2.624%; B: 0.1842%.